[ ]: non-standard residue; d: D form. The star is where a group is joined. OPac = O=C(CO*)c1ccccc1; Boc = CC(C)(C)OC(=O)*; OBn = c1ccc(CO*)cc1

This series in a line: general procedure: solution-phase peptide synthesis; DCC/HONB (ONB active esters); DCC/HOBt. To be noted: for cyclisation yield: cyclisation step.

Boc-[dA]E(OBn)W[dL]L-OH showed a step yield (late stage modification step) of 85.8%.
For Cyclo(-Trp-D-Leu-Leu-D-Ala-Glu-), the step yield (late stage modification step) worked out at 98.0%.
Substance Boc-[dA]E(OBn)W[dL]L-OPac gave a step yield (coupling step) of 89.5%.
Still for that read-out and setting: in the case of Boc-L[dW][dE](OBn)A-OPac it was 92.8%.
Substance Boc-[dF]L[dW][dE](OBn)A-OH had a step yield (late stage modification step) of 93.6%.
On to Boc-[dF]L[dW][dE](OBn)A-OPac, for which the step yield (coupling step) is recorded as 97.4%.
Same read-out and setting: with Boc-E(OBn)W[dL]L-OPac the figure was 87.2%.
Regarding cyclo([dE]A[dF]L[dW]), the cyclisation yield (on linear precursor) is recorded as 14.1%.
Consider Cyclo(-Trp-D-Leu-Leu-D-Ala-Glu(OBzl)-), for which the cyclisation yield turned out to be 75.9%.
